According to patent publication US8367328B2, “Method for synthesizing DNA” (Takara Bio Inc., priority 1998, dated 2013):

What was measured:
Pyrobest DNA Polymerase = test: PCR with Pyrobest DNA Polymerase in the presence of cationic complexes; format: biochemical, Pyrococcus sp.
ExTaq DNA Polymerase = test: PCR with ExTaq DNA Polymerase in the presence of cationic complexes; format: biochemical
Description: Using hexaamminecobalt (III) chloride ([Co(NH3)6]Cl3) (manufactured by Sigma), tris(ethylenediamine)cobalt (III) chloride ([Co(C2H8N2)3]Cl3) (manufactured by Aldrich), or tris(ethylenediamine)rhodium (III) trichloride•trihydrate ([Rh(C2H8N2)3]Cl3.3H2O) (manufactured by Aldrich), the effects on the amplification reaction by various kinds of DNA polymerases were examined. As the DNA polymerases, TaKaRa Taq DNA Polymerase (hereinafter referred to as “Taq DNA Polymerase” manufactured by Takara Shuzo Co., Ltd.), Pyrobest DNA Polymerase (manufactured by Takara Shuzo Co., Ltd.) and Ex Taq DNA Polymerase (manufactured by Takara Shuzo Co., Ltd.) were used.
A reaction mixture comprising Escherichia coli JM109 genomic DNA as a template, primers Eco1 and Eco2 as a primer pair, and DNA polymerase was prepared, and PCR was carried out. The compositions of the reaction mixture for each enzyme are as follows.
a reaction mixture comprising 5 μl of 10-fold concentrated buffer for TaKaRa ExTaq DNA Polymerase (manufactured by Takara Shuzo Co., Ltd.), 0.2 mM each of dATP, dCTP, dGTP and dTTP, 100 pg of Escherichia coli JM109 genomic DNA, 1.25 U of TaKaRa EX-Taq DNA Polymerase, and 10 pmol each of primers Eco1 and Eco2 (a final volume being 50 μl). […]

## N.N.N.N.N.N.[Cl-].[Cl-].[Cl-].[Co+3] [[Co(NH3)6]Cl3, hexaamminecobalt (III) chloride]
Pyrobest DNA Polymerase; 100 μM
  Reaction time period as fraction of that of no addition: about ⅗
Pyrobest DNA Polymerase; 100 μM complex added, 98°C 5 s–68°C 60 s, 30 cycles (no addition: 120 s, 31 cycles, 4911 s)
  Time Period Required (for same amount of amplified product): 2953 s
ExTaq DNA Polymerase; 50 μM
  Reaction time period as fraction of that of no addition: about ⅘
ExTaq DNA Polymerase; 50 μM complex added, 98°C 5 s–68°C 40 s, 30 cycles (no addition: 60 s, 30 cycles, 2953 s)
  Time Period Required (for same amount of amplified product): 2294 s
